PubChem BioAssay AID652272 | Drosophila RNAi Screening Center, 2013
Assay: 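Genes whose knock-down decreases or increases Hedgehog reporter output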 (primary screen). Cell system: Drosophila clone 8 (Cl8) cells. Knock-down reagent: long dsRNA against Drosophila genes. Read-out: 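Firefly light from a Hedgehog-responsive ptc promoter reporter and Renilla reference light, both read on a plate reader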. Direction: firefly Hh reporter signal: higher = more ptc reporter light; Renilla reference signal: higher = more Renilla control light. Active means: 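Called a hit if the two-replicate mean z-score lies below -2 or above +3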. Meaning of the calls: active = hit: reporter lowered or raised; inactive = not a hit.
The deposit covers about 21,000 reagents; this is an unselected part of those that have a named target and a result. Over the whole deposit, 503 (2.4%) got an active call. 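Raw plate light values, not normalised; calls rest on replicate z-scores that were not deposited; hits include reporter decreases as well as increases.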 The numbers tell different reagents against one gene apart. A plus sign joins genes that one reagent is predicted to hit. Not stated in the record: the amount of reagent, the time to read-out.

| Gene | reagent | firefly Hh reporter signal, replicate 1 | firefly Hh reporter signal, replicate 2 | firefly Hh reporter signal, replicate 3 | Renilla reference signal, replicate 1 | Renilla reference signal, replicate 2 | call |
| --- | --- | --- | --- | --- | --- | --- | --- |
| CHES-1-like | 1 | 67296 | 1.63e5 | – | 1863 | 6676 | inactive |
| alpha-Spec | 1 | 73723 | 88672 | – | 3553 | 3504 | inactive |
| Spindly | 1 | 1.36e5 | 63178 | – | 3261 | 6439 | inactive |
| TM9SF4 | 1 | 92537 | 94081 | – | 3740 | 3898 | inactive |
| Iml1 | 1 | 87339 | 78388 | – | 4043 | 3587 | inactive |
| Cog7 | 1 | 1.33e5 | 2.00e5 | – | 5184 | 6384 | inactive |
| CG11700 | 1 | 5258 | 13079 | – | 454 | 1632 | active |
| CG13705 | 1 | 95018 | 86858 | – | 7442 | 6224 | inactive |
| Prestin | 1 | 91060 | – | – | 1177 | 4336 | inactive |
| CG3916 | 1 | 79703 | 1.41e5 | – | 2041 | 3978 | inactive |
| Usp30 | 1 | 80417 | 1.69e5 | – | 3072 | 6688 | inactive |
| CycH | 1 | 1.60e5 | 1.81e5 | – | 5508 | 10161 | inactive |
| emc | 1 | 3.68e5 | 53953 | – | 2672 | 2672 | inactive |
| Hcs | 1 | 2.52e5 | – | – | 5229 | – | inactive |
| Hcs | 2 | 61298 | 97149 | – | 2413 | 2476 | inactive |
| dnk | 1 | 4.59e5 | 1.03e5 | – | 25578 | 3184 | inactive |
| LTV1 | 1 | 88928 | 56336 | – | 3766 | 2345 | inactive |
| CG15080 | 1 | 1.01e5 | 57588 | – | 1778 | 2788 | inactive |
| CG31650 | 1 | 67543 | 45612 | – | 3445 | 1799 | inactive |
| CG10674 | 1 | 70556 | 62048 | – | 6929 | 4743 | inactive |
| Vlet | 1 | 1.02e5 | 70128 | – | 2393 | 1786 | inactive |
| CG43326 + CG43325 | 1 | 70265 | 49736 | – | 1955 | 4407 | inactive |
| CG44433 | 1 | 1.62e5 | 97089 | – | 4738 | 7046 | inactive |
| CG44433 | 2 | 1.15e5 | 50325 | – | 2952 | 3368 | inactive |
| sc | 1 | 57195 | 1.75e5 | – | 1212 | 7376 | inactive |
| IntS3 | 1 | 79689 | 1.53e5 | – | 2361 | 7130 | inactive |
| CG12278 | 1 | 5.31e5 | 72807 | – | 25980 | 2171 | inactive |
| CG43902 | 1 | 1.47e5 | 3.44e5 | – | 4021 | 12518 | inactive |
| CG43902 | 2 | 59696 | 2.49e5 | – | 1734 | 7856 | inactive |
| Spn42Da | 1 | 96160 | 48594 | – | 2112 | 4192 | inactive |
| CG11663 | 1 | 48119 | 92536 | – | 1356 | 4027 | inactive |
| CG32391 | 1 | 1.22e5 | 2.50e5 | – | 3184 | 9552 | inactive |
| CG33281 | 1 | 93792 | 35564 | – | 2389 | 3995 | inactive |
| Gr61a | 1 | 63728 | 46016 | – | 1955 | 3760 | inactive |
| CG13581 | 1 | 74902 | 61127 | – | 1517 | 5494 | inactive |
| CG8952 | 1 | 77491 | 75552 | – | 2023 | 1760 | inactive |
| rn | 1 | 55792 | 49372 | – | 2713 | 1701 | inactive |
| rn | 2 | 92034 | 86180 | – | 3363 | 2672 | inactive |
| rn | 3 | 98548 | 1.02e5 | – | 4449 | 3489 | inactive |
| rn | 4 | 78552 | 1.08e5 | – | 3507 | 3157 | inactive |
| CG32808 | 1 | 5.22e5 | 2.16e5 | – | 26833 | 4640 | inactive |
| Hcf | 1 | 2.12e5 | 96913 | – | 3620 | 2506 | inactive |
| Gmap | 1 | 1.67e5 | 1.04e5 | – | 3472 | 2525 | inactive |
| Gmap | 2 | 85400 | 2.40e5 | – | 1958 | 9424 | inactive |
| CG9410 + CG15908 | 1 | 66791 | 37860 | – | 1760 | 3657 | inactive |
| CG9410 + CG15908 | 2 | 86578 | 62211 | – | 2124 | 6297 | inactive |
| CG10445 | 1 | 68077 | 87968 | – | 2656 | 4323 | inactive |
| side | 1 | 2.05e5 | 5.23e5 | 1.80e5 | 6730 | 4474 | inactive |
| side | 2 | 1.56e5 | 98160 | – | 5738 | 2230 | inactive |
| side | 3 | 1.37e5 | 1.23e5 | – | 5269 | 2955 | inactive |
| side | 4 | 1.30e5 | 1.04e5 | – | 4983 | 2428 | inactive |
| side | 5 | 1.66e5 | 1.48e5 | – | 5737 | 3622 | inactive |
| Tbh | 1 | 86877 | 1.51e5 | – | 3175 | 5865 | inactive |
| Syt7 | 1 | 1.55e5 | 3.56e5 | – | 6082 | 12365 | inactive |
| Syt7 | 2 | 1.37e5 | 2.93e5 | – | 5174 | 10966 | inactive |
| Met75Ca + Met75Cb | 1 | 3.40e5 | – | – | 6832 | – | inactive |
| Met75Ca + Met75Cb | 2 | 1.90e5 | – | – | 5068 | 4843 | inactive |

5 entries from above, reformatted.
{"Gene": "CG12278", "reagent": 1, "firefly Hh reporter signal, replicate 1": 5.31e5, "firefly Hh reporter signal, replicate 2": 72807, "Renilla reference signal, replicate 1": 25980, "Renilla reference signal, replicate 2": 2171, "call": "inactive"}
{"Gene": "CG43902", "reagent": 1, "firefly Hh reporter signal, replicate 1": 1.47e5, "firefly Hh reporter signal, replicate 2": 3.44e5, "Renilla reference signal, replicate 1": 4021, "Renilla reference signal, replicate 2": 12518, "call": "inactive"}
{"Gene": "CG43902", "reagent": 2, "firefly Hh reporter signal, replicate 1": 59696, "firefly Hh reporter signal, replicate 2": 2.49e5, "Renilla reference signal, replicate 1": 1734, "Renilla reference signal, replicate 2": 7856, "call": "inactive"}
{"Gene": "Spn42Da", "reagent": 1, "firefly Hh reporter signal, replicate 1": 96160, "firefly Hh reporter signal, replicate 2": 48594, "Renilla reference signal, replicate 1": 2112, "Renilla reference signal, replicate 2": 4192, "call": "inactive"}
{"Gene": "CG11663", "reagent": 1, "firefly Hh reporter signal, replicate 1": 48119, "firefly Hh reporter signal, replicate 2": 92536, "Renilla reference signal, replicate 1": 1356, "Renilla reference signal, replicate 2": 4027, "call": "inactive"}
